Reference: PubChem BioAssay AID504467 (National Center for Advancing Translational Sciences (NCATS), 2011)
Among all 330,000 compounds or so, about 7,700 (2.3%) were called active. This list was built around the results that the source calls inconclusive (neither active nor inactive); the mix of calls is not that of the screen. Calls come from the whole dose curve; as a rule, active = well fitted inhibition curve with a large enough effect; inconclusive = small, poorly fitted or top-dose-only effect, or effect the other way; inactive = flat fitted curve, though single readings scatter. Where the call is inconclusive, the potency comes from a doubtful curve fit.

Test: qHTS screen for small molecules that inhibit ELG1-dependent DNA repair in human embryonic kidney (HEK293T) cells expressing luciferase-tagged ELG1; note: nearly all actives have a fitted effect of over 55% in size
Conditions: HEK293T ELG1-luciferase reporter, luminescence, 16 h, DNA damage induced by 5-fluorouridine; activity change, negative = inhibition: at 46.1 µM (top of the series)
Method in brief: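 Cells (2,000 per well) received 5-fluorouridine plus test compound or DMSO and were incubated 16 hr at 37 °C, 5% CO2. Luciferase activity was read by luminescence 30 min after ONE-Glo addition; signal suppression marked inhibition of damage-induced ELG1 function.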
% is set by controls: 0 for no effect and ±100 for the full control effect; potency is the fitted concentration of half-maximal effect.

SMILES | Potency | activity change, negative = inhibition
CN(C)CCCn1c(SCC(=O)Nc2nccs2)nnc1-c1ccncc1 | inconclusive: 14.6 µM [activator, partial curve] | –
CCc1cc(C(=O)c2ccc(Br)cc2)c(NC(=O)CN(CC)CC)s1 | – | inactive: -26.3%
Cc1ccc(-c2nnc(NCc3nc4ccccc4[nH]3)c3ccccc23)cc1S(=O)(=O)N(C)C | active: 10.3 µM | –
Oc1cccc(/C=N/N=C/c2cccc(O)c2O)c1O | inconclusive: 18.3 µM [activator, single point] | –
Cc1ccc(S(=O)(=O)N2[C@@H](c3ccc(Cl)cc3)C(C(=O)O)=C[C@H]2CC2CCCC2)cc1 | – | inactive: 3.33%
CCN(C(=O)COc1ccc(N(C)S(=O)(=O)c2ccc(NC(C)=O)cc2)cc1)C1CCCCC1 | active: 20.6 µM | –
COc1ccc(-c2nc(C)c(C(C)=O)n2O)cc1 | inconclusive: 29.1 µM [activator, single point] | –
O=C(CN1CCCCC1)Nc1ccccc1Cl | inconclusive: 18.3 µM [activator, partial curve, poor fit] | –
CCOc1ccc(NC(=S)NC(=O)Cc2ccccc2)cc1 | – | inactive: 17.4%
Cc1ccccc1NC(=O)c1sc2nc[nH]c(=O)c2c1C | – | inactive: -6.09%
FC(F)(F)COc1nc(N2CCOCC2)nc(N(c2ccccc2)c2ccccc2)n1 | inconclusive: 20.6 µM [inhibitor, single point] | –
O=C(NCCC1=CCCCC1)c1ccc(Cl)c(S(=O)(=O)N2CCOCC2)c1 | inconclusive: 20.6 µM [inhibitor, partial curve] | –
COc1ccc2ccccc2c1/C=N/Nc1cccc(C(=O)O)c1 | inconclusive: 6.51 µM [activator, single point] | –
CC12CCC(=O)N1C(C(=O)NNC(=O)COc1ccc(Br)cc1)CS2 (stereo unspecified) | – | inactive: 3.95%
CCNC(=O)OCCC12CC3CC(CC(C3)C1)C2 | inconclusive: 16.4 µM [activator, single point] | –
Cc1ccc2[nH]c(C(=O)N3CCC(C(N)=O)CC3)cc2c1 | inconclusive: 11.2 µM [activator, partial curve] | –
O=C(O)C1CCCCC1C(=O)Nc1ccccc1Cl (stereo unspecified) | – | inactive: 0.539%
Cc1ccc(-n2ncc3c(NCCCN4CCOCC4)ncnc32)c(C)c1 | – | inactive: -3.56%
COc1ccc([N+](=O)[O-])cc1NC(=O)C(C)N(C)Cc1ccc(Br)cc1 (stereo unspecified) | active: 20.6 µM | –
Cc1cc(C(=O)N(C)CC(=O)Nc2ccccc2C(F)(F)F)c(C)o1 | – | inactive: -3.39%
CC(=O)NCCn1c(SCc2ccc(C)cc2C)nc2ccccc2c1=O | inconclusive: 23.1 µM [inhibitor, single point] | –
CN(CC1CCCO1)S(=O)(=O)c1ccc(C(=O)Nc2nc(-c3ccccn3)cs2)cc1 (stereo unspecified) | inconclusive: 5.8 µM [inhibitor, partial curve, poor fit] | –
N#C/C(=C\c1ccc(O)cc1)c1nc2ccccc2o1 | inconclusive: 8.2 µM [activator, partial curve] | –
N#Cc1cccc(C#N)c1Oc1ccc(S(=O)(=O)Nc2ccc(Cl)cc2)cc1 | inconclusive: 25.9 µM [inhibitor, single point] | –

SMILES | Potency | activity change, negative = inhibition
O=C(COC(=O)c1c(F)cccc1F)NCCNC(=O)COC(=O)c1c(F)cccc1F | – | inactive: 13.5%
O=C1NN=C(c2ccccc2)CC1c1c[nH]c2ccccc12 (stereo unspecified) | – | inactive: -4.24%
CCCCCOc1ccc(C(=O)CCC(=O)NC(C)c2ccc(S(N)(=O)=O)cc2)cc1 (stereo unspecified) | inconclusive: 18.3 µM [inhibitor, single point] | –
Clc1ccc(-c2ccnc(-n3cccc3)n2)s1 | inconclusive: 16.4 µM [activator, partial curve, poor fit] | –
NC(=O)c1cn(-c2ccccc2)nc1-c1cccnc1 | – | inactive: 2.42%
CC[C@]12c3[nH]c4cc(-c5ccco5)ccc4c3CCN1C(=O)[C@@H](CC(=O)NCC13CC4CC(CC(C4)C1)C3)C[C@@H]2C(=O)N1CCN(C(=O)C2CC2)CC1 | inconclusive: 16.4 µM [inhibitor, partial curve] | –
O=C(COC(=O)c1c2c(nc3ccccc13)/C(=C/c1cccc([N+](=O)[O-])c1)CCC2)NC1CCS(=O)(=O)C1 (stereo unspecified) | active: 7.31 µM | –
O=C(CO)N/N=C/c1c2ccccc2cc2ccccc12 | – | inactive: 3.72%
Cc1sc(NC(=O)/C=C/c2ccc3c(c2)OCO3)nc1-c1ccccc1 | active: 8.2 µM | –
O=C(Nc1cccc(-c2nc3ncccc3o2)c1)c1sc2cc(Cl)ccc2c1Cl | inconclusive: 29.1 µM [activator, single point] | –
COc1ccc(C=O)cc1OS(=O)(=O)c1ccc(NC(C)=O)cc1 | inconclusive: 14.6 µM [inhibitor, single point] | –
C=CCn1c(C)cc(C(=O)COC(=O)c2ccc3c(c2)NC(=O)CS3)c1C | inconclusive: 20.6 µM [inhibitor, single point] | –
CC(OC(=O)C1CC1)C(=O)Nc1ccc([N+](=O)[O-])cc1Cl (stereo unspecified) | inconclusive: 32.6 µM [activator, single point] | –
O=C(O)CNC(=O)C1CCCN1C(=O)CNC(=O)OCc1ccccc1 (stereo unspecified) | – | inactive: 15.4%
COC(=O)c1ccc(N2CCN(C)CC2)c(NC(=O)COc2ccc(OC)cc2)c1 | inconclusive: 20.6 µM [activator, single point] | –
CCOc1ccc(CN2CCN(Cc3ccc4cc(F)ccc4n3)CC2CCO)cc1 (stereo unspecified) | inconclusive: 8.2 µM [inhibitor, partial curve, poor fit] | –
Cc1ccc(S(=O)(=O)N(CC(=O)N/N=C/c2ccco2)c2cc(Cl)cc(Cl)c2)cc1 | inconclusive: 29.1 µM [inhibitor, single point] | –
O=C(COC(=O)CNS(=O)(=O)c1c(F)cccc1F)NC(=O)NC1CCCCC1 | – | inactive: 12.5%
COc1ccc(C2=CC(=O)C[C@H](c3ccc(F)cc3)C2)cc1OC | inconclusive: 18.3 µM [inhibitor, single point] | –
CCn1c(=O)c2cc(C(=O)Nc3cccc(C(C)=O)c3)sc2c2ccccc21 | inconclusive: 6.51 µM [activator, single point] | –
CCCS(=O)(=O)Nc1ccc2cn[nH]c2c1 | – | inactive: -4.49%
O=C(c1ccc(N2CCCC2=O)cc1)N1CCN(c2ccccc2O)CC1 | active: 18.3 µM | –
CC(C)(C)C(=O)Nc1ccc(NC(=O)c2ccco2)nc1 | inconclusive: 0.0046 µM [activator, full curve, poor fit] | –
CCc1ccc2[nH]c(=O)c(CN(CCN(CC)CC)C(=S)NCc3ccco3)cc2c1 | – | inactive: -12.2%

Retrieved by compound from above, 4 records:
SMILES | Potency | activity change, negative = inhibition
CC[C@]12c3[nH]c4cc(-c5ccco5)ccc4c3CCN1C(=O)[C@@H](CC(=O)NCC13CC4CC(CC(C4)C1)C3)C[C@@H]2C(=O)N1CCN(C(=O)C2CC2)CC1 | inconclusive: 16.4 µM [inhibitor, partial curve] | –
CCn1c(=O)c2cc(C(=O)Nc3cccc(C(C)=O)c3)sc2c2ccccc21 | inconclusive: 6.51 µM [activator, single point] | –
O=C1NN=C(c2ccccc2)CC1c1c[nH]c2ccccc12 (stereo unspecified) | – | inactive: -4.24%
COC(=O)c1ccc(N2CCN(C)CC2)c(NC(=O)COc2ccc(OC)cc2)c1 | inconclusive: 20.6 µM [activator, single point] | –

(next part)

SMILES | Potency | activity change, negative = inhibition
OCCNc1nc(-c2ccccc2)c2ccccc2n1 | – | inactive: -5.82%
C=C(C)C(=O)Oc1ccc(N2C(=O)[C@@H]3C4C=CC(C4)[C@@H]3C2=O)cc1 | inconclusive: 29.1 µM [activator, single point] | –
CCN(CC)S(=O)(=O)c1cccc(C(=O)Nc2ccc3c(c2)OCO3)c1 | inconclusive: 6.51 µM [activator, single point] | –
CN=c1scc(-c2ccco2)n1/N=C/c1ccc(O)c(O)c1 | inconclusive: 6.51 µM [activator, partial curve] | –
COc1cccc(NC(=O)CN2CCC(C)CC2)c1 | inconclusive: 18.4 µM [activator, single point] | –
Cc1ccc(S(=O)(=O)NCC(=O)NCC(=O)OCC(=O)N2CC(=O)Nc3ccccc32)cc1C | – | inactive: 4.81%
O=S(Cc1ccc(Br)cc1)Cc1nnc(SCc2c(Cl)cccc2Cl)n1-c1ccccc1 (stereo unspecified) | inconclusive: 11.6 µM [inhibitor, partial curve] | –
COc1ccc(CCNC(=O)CN2C(=O)NC(c3ccccc3)(c3ccccc3)C2=O)cc1 | active: 25.9 µM | –
S=C(NCc1ccccc1)N1CCN(C(=S)NCc2ccccc2)CC1 | inconclusive: 32.6 µM [activator, single point] | –
O=C(COc1ccccc1F)Nc1ccc(N2CCOCC2)cc1N1CCOCC1 | inconclusive: 0.651 µM [inhibitor, full curve] | –
O=C(N/N=C/c1ccc2c(c1)OCO2)c1ccc(Br)o1 | inconclusive: 8.2 µM [activator, partial curve] | –
COC(=O)c1sccc1S(=O)(=O)Nc1ccc(N2CCCCC2)cc1 | inconclusive: 16.4 µM [inhibitor, partial curve, poor fit] | –
CCC(=O)N1CCN(c2ccc(NC(=O)c3cc4ccccc4o3)cc2)CC1 | inconclusive: 18.4 µM [inhibitor, single point] | –
CCCn1c(C)cc(C(=O)COc2ncnc3sccc23)c1C | inconclusive: 8.2 µM [activator, partial curve] | –
CSC1=NCCN1C(=O)c1ccco1 | inconclusive: 20.6 µM [activator, single point] | –
CCNC(=S)NNc1nncc2ccccc12 | – | inactive: 13.9%
CC(Sc1nc2ccccc2c(=O)n1C)C(=O)NC1CCCCC1C (stereo unspecified) | – | inactive: 7.79%
O=C(NCc1ccco1)c1ccc(Cl)c(S(=O)(=O)N2CCCC2)c1 | – | inactive: 0.495%
COc1ccnc(Oc2ccc3ccccc3c2)c1C#N | inconclusive: 8.2 µM [activator, partial curve] | –
Cc1cccc(-n2c(=S)[nH]c3nc4c(cc3c2=O)COC(C)(C)C4)c1 | inconclusive: 29.1 µM [activator, single point] | –
CCCOC(=O)c1c(NC(=O)CCCn2nc([N+](=O)[O-])c(Cl)c2C)sc(C(=O)OC)c1C | inconclusive: 18.4 µM [inhibitor, partial curve] | –
COc1ccc(NC(=O)COc2ccc(N(C)S(=O)(=O)c3ccc(Cl)cc3)cc2)cc1OC | inconclusive: 10.3 µM [inhibitor, partial curve] | –
O=S(=O)([N-]c1nc2ccccc2nc1-n1cc[n+](Cc2ccccc2)c1)c1ccc(Br)cc1 | inconclusive: 14.6 µM [activator, partial curve] | –

Two of these compounds, set out differently.
COc1ccc(CCNC(=O)CN2C(=O)NC(c3ccccc3)(c3ccccc3)C2=O)cc1
  Potency: active: 25.9 µM
CCNC(=S)NNc1nncc2ccccc12
  activity change, negative = inhibition: inactive: 13.9%
